Several values for one entry are separate records, joined by “and”; a condition that tells them apart may be missing. Equal entries are not always repeated. Structures can show the parent of a compound that is named as a salt. ± gives the standard deviation of the averaged measurements. The list shows a part of the results. Many values rest on one well or one pass, so single values are uncertain.
Test system: RAW 264.7
Experiment: cell viability (MTT) relative to vehicle control; higher = more viable cells
Conditions: stimulus: HMGB1 5 ug/ml, 18 h
[1] = compound concentration: 1 ug/ml

Row | SMILES | cell viability (compound concentration: 3 uM) | cell viability [1] [%]
1 | CC(C)(C)NC[C@H](O)COc1cccc2c1CCCC2=O [(-) -Levobunolol hydrochloride] | 85.5% | –
2 | CCN1C(=O)C=CC1=O [N-Ethylmaleimide] | 105% | –
3 | O=C(NC(Cc1cc(=O)[nH]c2ccccc12)C(=O)O)c1ccc(Cl)cc1 (configuration not stated) | 110% | –
4 | O=C(NC(Cc1cc(=O)[nH]c2ccccc12)C(=O)O)c1ccc(Cl)cc1 (configuration not stated) [Rebamipide] | 104 ± 2.2% | –
5 | O=C1c2c(O)ccc(O)c2C(=O)c2c(NCCNCCO)ccc(NCCNCCO)c21 | 5.55 ± 5.6% | –
6 | O=C1c2c(O)ccc(O)c2C(=O)c2c(NCCNCCO)ccc(NCCNCCO)c21 [Mitoxantrone] | 31.8 ± 26% | –
7 | O=C1c2c(O)ccc(O)c2C(=O)c2c(NCCNCCO)ccc(NCCNCCO)c21 [Mitoxantrone dihydrochloride] | 2.95% | –
8 | Cc1nc2sccn2c(=O)c1CCN1CCC(=C(c2ccc(F)cc2)c2ccc(F)cc2)CC1 [Ritanserin] | 122% | –
9 | Cc1nc2sccn2c(=O)c1CCN1CCC(=C(c2ccc(F)cc2)c2ccc(F)cc2)CC1 | 92.9% | –
10 | CO[C@H]1C[C@H](O[C@@H]2/C(C)=C/C[C@@H]3C[C@@H](C[C@]4(CC[C@H](C)[C@@H](C5CCCCC5)O4)O3)OC(=O)[C@@H]3C=C(C)/C(=N/O)[C@H]4OC/C(=C\C=C\[C@@H]2C)[C@]43O)O[C@@H](C)[C@@H]1O | 88.1% | –
11 | C[C@H](CCC(=O)O)[C@H]1CC[C@H]2[C@@H]3C(=O)C[C@@H]4CC(=O)CC[C@]4(C)[C@H]3CC(=O)[C@]12C [Dehydrocholic acid] | 92% | 97.4
12 | C[C@H](CCC(=O)O)[C@H]1CC[C@H]2[C@@H]3C(=O)C[C@@H]4CC(=O)CC[C@]4(C)[C@H]3CC(=O)[C@]12C | 98.8% and 102% | –
13 | CCOC(=O)C1=C(C)NC(C)=C(C(=O)OC)C1c1cccc(Cl)c1Cl (configuration not stated) [Felodipine] | 102 ± 12% | –
14 | COc1cc2nc(N3CCCN(C)CC3)nc(NC3CCN(Cc4ccccc4)CC3)c2cc1OC | 98.7% | –
15 | O=S(=O)(c1cccc2cnccc12)N1CCCNCC1 | 106% | –
16 | CCc1nn(CCCN2CCN(c3cccc(Cl)c3)CC2)c(=O)n1CCOc1ccccc1 [Nefazodone HCl] | 103% | –
17 | CCc1nn(CCCN2CCN(c3cccc(Cl)c3)CC2)c(=O)n1CCOc1ccccc1 [Nefazodone] | 93.8 ± 1.5% | –
18 | NC1CONC1=O (racemic) [DL-Cycloserine] | 108% | –
19 | CN(C)CCCc1cc(C(=O)Nc2ccc(-c3ccncc3)cc2)ccc1O | 111% | –
20 | CC(=O)Nc1ccc(OC(C)=O)cc1 | 111% | –
21 | NC1CCN(c2c(F)cc3c(=O)c(C(=O)O)cn(C4CC4)c3c2Cl)C1 (configuration not stated) [Clinafloxacin] | 105% | –
22 | NC[C@@H]1O[C@H](O[C@H]2[C@@H](O)[C@H](O[C@@H]3[C@@H](O)[C@H](N)C[C@H](N)[C@H]3O[C@H]3O[C@H](CN)[C@@H](O)[C@H](O)[C@H]3N)O[C@@H]2CO)[C@H](N)[C@@H](O)[C@@H]1O [Neomycin] | 102% | –
23 | NC[C@@H]1O[C@H](O[C@H]2[C@@H](O)[C@H](O[C@@H]3[C@@H](O)[C@H](N)C[C@H](N)[C@H]3O[C@H]3O[C@H](CN)[C@@H](O)[C@H](O)[C@H]3N)O[C@@H]2CO)[C@H](N)[C@@H](O)[C@@H]1O [Neomycin B sulfate; Neomycin Trisulfate] | – | 116
24 | CCC1(C)CC(=O)NC1=O (configuration not stated) [Ethosuximide] | 101 ± 6.2% | –
25 | CCC1(C)CC(=O)NC1=O (configuration not stated) | 104% | –
26 | CC(NCCc1ccc(O)cc1)C(O)c1ccc(O)cc1 (configuration not stated) [Ritodrine hydrochloride] | 111 ± 19% | –
27 | CC(NCCc1ccc(O)cc1)C(O)c1ccc(O)cc1 (configuration not stated) | 108% | –

Reprinted at random: four entries already listed
Row | SMILES | cell viability (compound concentration: 3 uM) | cell viability [1] [%]
4 | O=C(NC(Cc1cc(=O)[nH]c2ccccc12)C(=O)O)c1ccc(Cl)cc1 (configuration not stated) [Rebamipide] | 104 ± 2.2% | –
25 | CCC1(C)CC(=O)NC1=O (configuration not stated) | 104% | –
16 | CCc1nn(CCCN2CCN(c3cccc(Cl)c3)CC2)c(=O)n1CCOc1ccccc1 [Nefazodone HCl] | 103% | –
24 | CCC1(C)CC(=O)NC1=O (configuration not stated) [Ethosuximide] | 101 ± 6.2% | –

Next part

Row | SMILES | cell viability (compound concentration: 3 uM) | cell viability [1] [%]
28 | CC(=O)O[C@H]1[C@H](C)OC=C[C@@H]1OC(C)=O [3,4-Di-O-acetyl-6-deoxy-L-glucal] | – | 92.2
29 | Cc1nc2c([nH]1)c(=O)n(C)c(=O)n2Cc1ccco1 [Furafylline] | 112 ± 3% | –
30 | C[N+](C)(CCOc1ccccc1)Cc1ccccc1.O=C([O-])c1cc2ccccc2cc1O [Bephenium hydroxynaphthoate] | 89.9% | –
31 | OC[C@H]1NC[C@@H](O)[C@@H]1O [1,4-Dideoxy-1,4-imino-D-arabinitol] | 110% | –
32 | CCCNC(C)(C)COC(=O)c1ccccc1 [Meprylcaine hydrochloride] | 97.4% | –
33 | NNC(=O)c1ccncc1.Nc1ccc(C(=O)O)c(O)c1 | 113% | –
34 | CCCc1nn(C)c2c(=O)[nH]c(-c3cc(S(=O)(=O)N4CCN(C)CC4)ccc3OCC)nc12 [Sildenafil] | 121 ± 9.9% | –
35 | COc1cc(CNC(=O)CCCCCCC(C)C)ccc1O [Dihydrocapsaicin] | 102% | 88.7
36 | CC(=O)Oc1ccc(C(c2ccc(OC(C)=O)cc2)c2ccccn2)cc1 | 106% | –
37 | CC(=O)Oc1ccc(C(c2ccc(OC(C)=O)cc2)c2ccccn2)cc1 [Bisacodyl] | 109 ± 1.9% | –
38 | CCC(C)(C)C(=O)O[C@H]1C[C@@H](C)C=C2C=C[C@H](C)[C@H](CC[C@@H]3C[C@@H](O)CC(=O)O3)[C@H]21 | 96.8% | –
39 | CCC(C)(C)C(=O)O[C@H]1C[C@@H](C)C=C2C=C[C@H](C)[C@H](CC[C@@H]3C[C@@H](O)CC(=O)O3)[C@H]21 [Simvastatin] | 113 ± 9.2% | –
40 | C[C@@H]1CN(c2c(F)c(F)c3c(=O)c(C(=O)O)cn(C4CC4)c3c2F)C[C@H](C)N1 | 108% | –
41 | COc1cccc(OC)c1OCCNCC1CSc2ccccc2O1 (configuration not stated) [Benoxathian hydrochloride] | 96.1% | –
42 | CCCCS(=N)(=O)CCC(N)C(=O)O [L-Buthionine-sulfoximine] | 93.8% | –
43 | CCCCCCCCCCCCCCCCCCNC(=O)OCC(COP(=O)([O-])OCC[n+]1ccsc1)OC (configuration not stated) | 110% | –
44 | Nc1ccc(C(=O)O)c(O)c1 [4-aminosalicylic acid] | 92.4% | –
45 | Nc1ccc(C(=O)O)c(O)c1 [4-Aminosalicylic acid] | 95.9% | –
46 | Nc1ccc(C(=O)O)c(O)c1 | 106% | –
47 | O=C1Nc2ccc(Cl)cc2[C@@](C#CC2CC2)(C(F)(F)F)O1 | 93.8% | –
48 | O=C1Nc2ccc(Cl)cc2[C@@](C#CC2CC2)(C(F)(F)F)O1 [Efavirenz] | 109 ± 13% | –
49 | Clc1ccc(C(c2ccccc2Cl)C(Cl)Cl)cc1 (configuration not stated) [Mitotane] | 130% | –
50 | Clc1ccc(C(c2ccccc2Cl)C(Cl)Cl)cc1 (configuration not stated) [1-(2-Chlorophenyl)-1-(4-chlorophenyl)-2,2-dichloroethane] | 102% | –
51 | Clc1ccc(C(c2ccccc2Cl)C(Cl)Cl)cc1 (configuration not stated) | 106% | –
52 | O=C1O[C@H]([C@@H](O)CO)C(O)=C1O | 107 ± 11% | –
53 | O=C1O[C@H]([C@@H](O)CO)C(O)=C1O [L(+)-Ascorbic acid] | – | 98.4
54 | O=C1O[C@H]([C@@H](O)CO)C(O)=C1O [Ascorbic acid] | 102% | –

Row | SMILES | cell viability (compound concentration: 3 uM) | cell viability [1] [%]
55 | OC[C@H]1O[C@@H](Oc2cccc3cccnc23)[C@H](O)[C@@H](O)[C@@H]1O [8-Hydroxyquinoline beta-D-glucopyranoside] | – | 98.7
56 | CC(=O)Nc1ccc(S(=O)(=O)c2ccc(NC(C)=O)cc2)cc1 | 111% | –
57 | OCCc1ccccc1 | 101% | –
58 | O=C(c1ccc(F)cc1)C1CCN(CCn2c(=S)[nH]c3ccccc3c2=O)CC1 [Altanserin] | 101% | –
59 | O=C(O)c1ccccc1Nc1cccc(C(F)(F)F)c1 [Flufenamic acid] | 99.9 ± 17% | –
60 | O=C(O)c1ccccc1Nc1cccc(C(F)(F)F)c1 | 107% | –
61 | CC[N+](C)(CC)CCC[n+]1c(-c2ccccc2)c2cc(N)ccc2c2ccc(N)cc21 [Propidium iodide] | 144% | –
62 | Nc1[nH]c(=O)ncc1F | 100% | –
63 | CCC(=O)O[C@]1(C(=O)SCF)[C@H](C)C[C@H]2[C@@H]3C[C@H](F)C4=CC(=O)C=C[C@]4(C)[C@@]3(F)[C@@H](O)C[C@@]21C | 93.4% | –
64 | CCC(=O)O[C@]1(C(=O)SCF)[C@H](C)C[C@H]2[C@@H]3C[C@H](F)C4=CC(=O)C=C[C@]4(C)[C@@]3(F)[C@@H](O)C[C@@]21C [Fluticasone propionate] | 77.5% | –
65 | Nc1ccc(/N=N/c2ccccc2)c(N)n1 | 106% | –
66 | Nc1ccc(/N=N/c2ccccc2)c(N)n1 [Phenazopyridine hydrochloride] | 127% | –
67 | CN(C)CCOC(=O)C(c1ccccc1)C1(O)CCCC1 (configuration not stated) | 98.6% | –
68 | CN(C)CCOC(=O)C(c1ccccc1)C1(O)CCCC1 (configuration not stated) [Cyclopentolate hydrochloride] | 92.3% | –
69 | CCc1cc(Cl)c(OC)c(C(=O)NC[C@@H]2CCCN2CC)c1O | 111% | –
70 | CC1=CC(=O)C2=C(C)CC[C@@H]3[C@H](OC(=O)[C@H]3C)[C@@H]12 [Leucomisine] | 106% | –
71 | COC(=O)C1=CO[C@@H](C)[C@@H]2CN3CCc4c([nH]c5cc(OC)c(OC)cc45)[C@H]3C[C@H]12 [Reserpiline] | – | 97.5
72 | Nc1nc(/C(=C/CC(=O)O)C(=O)N[C@@H]2C(=O)N3C(C(=O)O)=CCS[C@H]23)cs1 | 104% | –
73 | NCCCS(=O)(=O)O [3-Amino-1-propanesulfonic acid sodium] | 105% | –
74 | OCCN1CCN(CC/C=C2/c3ccccc3Sc3ccc(Cl)cc32)CC1 [Zuclopenthixol hydrochloride] | 86.2% | –
75 | C=C1CC[C@H](O)C/C1=C/C=C1\CCC[C@]2(C)[C@@H]([C@H](C)/C=C/[C@H](C)C(C)C)CC[C@@H]12 | 112% | –
76 | Nc1nc(N)c2nc(-c3ccccc3)c(N)nc2n1 | 108% | –
77 | Nc1nc(N)c2nc(-c3ccccc3)c(N)nc2n1 [Triamterene] | 108 ± 6.9% | –
78 | C=CC[N+]1([C@H]2C[C@H]3[C@@H]4CC[C@H]5C[C@H](O)[C@@H](N6CCOCC6)C[C@]5(C)[C@H]4CC[C@]3(C)[C@H]2OC(C)=O)CCCC1 [Rocuronium] | 108% | –
79 | CC(C)(C)NC(=O)[C@H]1CC[C@H]2[C@@H]3CC[C@H]4NC(=O)C=C[C@]4(C)[C@H]3CC[C@]12C | 105 ± 14% | –
80 | CC(C)(C)NC(=O)[C@H]1CC[C@H]2[C@@H]3CC[C@H]4NC(=O)C=C[C@]4(C)[C@H]3CC[C@]12C [Finasteride] | 104 ± 3.7% | –

— the supplement of paper PMC3682954
